Hit rate of the full screen: of about 300,000 compounds, about 5,200 (1.7%) were called active. This list was built around the results that the source calls inconclusive (neither active nor inactive); the mix of calls is not that of the screen.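 How the source made its calls: active means mean replicate activation of at least 50% with a set share of replicates each reaching 50%; inconclusive means only one of those two conditions met; inactive means mean below 50% and too few replicates reaching it.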
Assay: HSF-1 activators, primary screen, NIH3T3-HGL cells, MG132 stress, luminescence, single point (AID 504408);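 further: 0% = median of the neutral control wells and 100% = twice that signal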
Details: NIH3T3-HGL HSF-1 luciferase reporter, MG132, 8 h; at 9 µM; hits give high values; 100% = twice DMSO control signal

activation, inconclusive:
CCOC(=O)c1c(C)nc2c3ccccc3ccn12 50.7%
CCOc1cc(NC(=S)NCc2ccco2)c(OCC)cc1NC(=O)c1ccco1 53.2%
CCc1nc(SCc2ccc(Br)cc2)n[nH]1 50.1%
c1ccc(-c2noc(-c3cccc4ccccc34)n2)cc1 54.3%
COc1ccc2cc(S(=O)(=O)N3CCCCC3)ccc2c1S(=O)(=O)N1CCCCC1 53.2%
O=S(=O)(C(=CNc1ccccc1)S(=O)(=O)c1ccccc1)c1ccccc1 51.7%
C/C(=N\NC(=O)CC1N=C(Cc2ccccc2)NNC1=O)c1ccc(C)cc1 (stereo unspecified) 55.3%
COc1ccc(N2C(=O)CC(Sc3n[nH]c(-c4ccccc4)n3)C2=O)cc1 (stereo unspecified) 50.7%
S=c1[nH]c2cc(Cl)c3cccnc3c2o1 58.8%
O=C(CCS(=O)NCc1ccccc1)NCc1ccccc1 (stereo unspecified) 51.2%
COc1cccc(C(=O)Nc2ccc3c(c2)C(=O)c2ccccc2C3=O)c1 50.2%
Cn1c(CNC(=O)c2ccco2)nnc1SCC(=O)Nc1c(F)cc(F)cc1Br 50.7%
Cc1nc(N2CCN(C)CC2)c2cc(-c3ccccc3)sc2n1 54.6%
CC(C)(C)n1ncc2c(=O)n(CC(=O)c3ccc(Cl)cc3)cnc21 52.9%
Cc1ccc(NC(=O)CCS(=O)(=O)c2ccc3c(c2)NC(=O)C(C)S3)nc1 (stereo unspecified) 54.2%
O=C(COC(=O)c1ccccc1Cc1ccccc1)Nc1ccc(SC(F)F)cc1 55.6%
CCC(C)NC(=O)CSc1c2c(nc3ccccc13)CCCC2 (stereo unspecified) 57.7%
COc1ccccc1NS(=O)(=O)c1cc(C(=O)N2CC(C)CC(C)C2)ccc1C (stereo unspecified) 51.7%
CCn1c2ccccc2c2cc(NC(=O)N3CCOCC3)ccc21 52%
COc1cc(/C=N/Nc2ccc(F)cc2F)cc(OC)c1O 54.5%
CCCCn1c(N)c(N(CC(C)C)C(=O)C2CCN(S(=O)(=O)c3ccc(C)c(C)c3)CC2)c(=O)[nH]c1=O 52.4%
COc1ccccc1NC(=O)CSc1nnnn1C 52.3%
O=C1C(=O)N(Cc2cccnc2)C(c2cccc(O)c2)/C1=C(\O)c1ccc2c(c1)OCCO2 (stereo unspecified) 54.8%
CN(C)/C=N/c1nc(-c2ccc3c(c2)OCO3)cs1 55.2%
CC(C)C(=O)Nc1cccc(C(=O)Nc2ccc3c(c2)OCO3)c1 51.7%
CC(Oc1ccccc1)C(=O)Nc1nnc(C2CCCCC2)s1 (stereo unspecified) 52%
CC[n+]1c(/C=C2/C=C(C)CC(C)(C)C2)sc2ccc(OC)cc21 54.5%
Cc1cccc(Nc2nc(-c3ccccc3)cs2)n1 60.6%
N#Cc1cccc(-c2nnc(SCc3ccccc3C#N)o2)c1 50.8%
COc1cc(C=C(c2nc3ccccc3s2)c2nc3ccccc3s2)cc(OC)c1O 52.6%
COc1ccc(OCc2cc(C(=O)N3CCOCC3)no2)c(Cl)c1 51.7%
N#C/C(=C\c1ccc(N2CCOCC2)c([N+](=O)[O-])c1)c1nc2ccccc2[nH]1 50.6%
COc1ccc(C(=O)C2CCCN(C(=O)c3cccc(N4CCCC4=O)c3)C2)cc1OC (stereo unspecified) 50.1%
COc1ccc(C(=O)CC(=O)C(=O)Nc2ccc(C)c(Cl)c2)cc1 50.1%
Cc1c(C(=O)NCCN(C)C)oc2ccc(S(=O)(=O)N3CCCC3)cc12 53.1%
COc1ccc(C2=NN(C(=O)c3ccc(Cl)c([N+](=O)[O-])c3)C(c3ccccc3)C2)cc1 (stereo unspecified) 51.7%
COc1ccc(Cn2c(/C=C/c3ccccc3)nc3ccccc32)cc1 58.4%
COc1ccc(N2C(=O)/C(=C\c3ccco3)N=C2SCC(=O)NC(C)(C)C)cc1Cl 53.5%
Cn1c(CCc2ccc(N)cc2)nc2ccccc21 56.1%
Cc1c(C)n(CCc2ccccc2)c2ncnc(NCCO)c12 50.1%
CC(=O)C(=Cc1ccc(C(=O)O)cc1)C(C)=O 50.1%
Cc1ccc(S(=O)(=O)N(C)C)cc1NC(=O)c1c(-c2c(F)cccc2Cl)noc1C 50.7%
COc1cccc(/C=N/Nc2ccc([N+](=O)[O-])cc2)c1O 52.5%
c1cnc(SCCOc2cccc3ccccc23)nc1 51.8%
O=C(OCC(=O)N1CCN(S(=O)(=O)c2ccc(Cl)cc2)CC1)c1ccc([N+](=O)[O-])o1 51.9%
O=C(Nc1ccc(Br)cc1)N1CCc2ccccc2C1 52.2%
COc1ccc(C2CC(c3cccs3)=NN2C(=O)CCl)cc1OC (stereo unspecified) 50.6%
O=C1CCC(/C=C/c2ccccc2)=NN1 54.3%
Cc1nc2sc(-c3ccccc3)nn2c(=O)c1Br 52.2%
CC1=CC(C)(C)Nc2ccc(OC(=O)C(Cc3ccccc3)N3C(=O)c4ccccc4C3=O)cc21 (stereo unspecified) 58%
CN(CCC1CCCCO1)C(=O)CCc1nnc(CCCCc2ccccc2)o1 (stereo unspecified) 72.3%

Grouped by structure: those above with a cyano group (two)
activation, inconclusive:
N#Cc1cccc(-c2nnc(SCc3ccccc3C#N)o2)c1 50.8%
N#C/C(=C\c1ccc(N2CCOCC2)c([N+](=O)[O-])c1)c1nc2ccccc2[nH]1 50.6%

Next part.

activation, inactive:
O=C(CSc1nnc(-c2ccccn2)o1)Nc1ccccc1F 23.3%
O=[N+]([O-])c1ccc(Nc2nc(N/N=C\c3ccc4c(c3)OCO4)nc(N3CCCCC3)n2)cc1 -23.9%
COc1ccccc1C(=O)NCCC(=O)N1CCCCC1 -2.9%
CCN1C(=O)c2cccc3c(S(=O)(=O)N4CCCC4C(=O)O)ccc1c23 (stereo unspecified) 13.9%
Cn1ccsc1=NC(=O)c1ccc(Cl)cc1 36.6%
COc1ccc(CCC(C)NCc2cccc(Br)c2)cc1 (stereo unspecified) -7.28%
Cc1nc(S(=O)(=O)Nc2ccccc2C(=O)NCC2CC2)cn1C 1.9%
CCOc1ccc(OCCC(=O)OCC(=O)Nc2ccc3c(c2)OCCO3)cc1 -10.1%
COC(=O)N/N=C\c1ccccc1OC/C=C/c1ccccc1 19.8%
Cc1cc(C(=O)C(C)Sc2cccc[n+]2[O-])c(C)n1-c1ccc(Cl)cc1 (stereo unspecified) 8.86%
COCCCn1c(SCC(=O)Nc2ccc(C(C)=O)cc2)nc2ccccc2c1=O 16.7%
COc1ccc(CN2CCCC(CNC(=O)c3ccc(F)cc3)C2)c(F)c1 (stereo unspecified) 5.33%
O=C(NCc1ccco1)c1ccc(CNc2c(N3CCCCC3)c(=O)c2=O)cc1 9.47%
Cc1cc(C(=O)N(C)CC2CCCN(CCc3ccc(F)cc3)C2)c(C)o1 (stereo unspecified) -13.2%
CCN(CC)S(=O)(=O)c1ccc2[nH]c(=O)cc(C(=O)NCc3ccccc3)c2c1 0.255%
COc1ccc(NC(=O)CCCSc2nc(-c3ccco3)cc(C(F)(F)F)n2)cc1OC 9.27%
O=C1c2ccccc2C(=O)N1OCCOCCOCCON1C(=O)c2ccccc2C1=O -16.6%
CCC(C)C(=O)N1CCc2cc(-c3csc(N)n3)ccc21 (stereo unspecified) 29.1%
COc1cc(/C=C/c2ccc3c(Br)cc(Br)c(O)c3n2)ccc1O -6.33%
O=C(CSc1cccc[n+]1[O-])Nc1cc2c(cc1Cl)C(=O)c1ccccc1C2=O 41.9%
Cc1ccc(C)c(NC(=O)C(Sc2nc3ccc(C)cc3[nH]2)c2ccccc2)c1 (stereo unspecified) 11.3%
Cc1ccc(S(=O)(=O)N2CCCOC2CNC(=O)C(=O)NCc2ccccc2C)cc1 (stereo unspecified) -8.74%
Cc1ccc(O)c(CNc2nc3ccccc3n2C)c1 6.25%
COc1ccc(-c2nc3ccccc3c(=O)n2O)cc1 14.9%
CCOC(=O)COc1ccc(C(=O)Nc2cccc(Cl)c2C)cc1 -17.8%
Cc1ccc(CS(=O)(=O)Cc2ccc(C(=O)NCCc3ccccc3)o2)cc1 4.11%
Cc1cc(N)n(-c2nc(-c3cccnc3)nc3ccccc23)n1 -1.58%
CN(C)c1ccc(C=Nc2ccccc2)cc1 -4.33%
COC(=O)Cn1c(C)nc2c(sc3nc(C)cc(C)c32)c1=O 43.9%

activation, active:
Cc1ccc2nc(N3C(=O)C(O)=C(C(=O)c4ccco4)C3c3cccs3)sc2c1 (stereo unspecified) 65.8%
Cc1cccc(-n2ncc3c(N(C)Cc4ccccc4)ncnc32)c1 60.8%
Cc1ccc(Nc2c(N)c(=O)oc3ccccc23)cc1 161%
O=c1cc(COc2ccc(Cl)c(Cl)c2)nc2sccn12 56.9%
Cn1c(=O)cc(OCCCC(=O)NC2CCCC2)c2ccccc21 56.4%
O=C(/C=N/NC(=O)c1ccc(Cl)cc1Cl)c1ccccc1 56.7%
O=C(CN1CC(=O)Oc2ccccc21)OCC(=O)c1cccc(Br)c1 52.9%
O=C(Nc1cccc(Cl)c1)N1CCC(CO)(CCOc2ccccc2)CC1 94.8%
COc1ccc2c(c1)CCc1c-2n[nH]c1C(=O)NCCC(C)C 51.3%
Cc1ccc(-n2cc(CN3CCN(Cc4nccn4C)CC3)c(-c3cccc(C)c3)n2)cc1 51.2%
Cc1cc(N/C=C\C(=O)c2ccc(Cl)c(Cl)c2)no1 54.6%

Already shown: 4 of the compounds above.
activation, active:
Cc1cccc(-n2ncc3c(N(C)Cc4ccccc4)ncnc32)c1 60.8%
Cc1ccc(Nc2c(N)c(=O)oc3ccccc23)cc1 161%
O=c1cc(COc2ccc(Cl)c(Cl)c2)nc2sccn12 56.9%
Cn1c(=O)cc(OCCCC(=O)NC2CCCC2)c2ccccc21 56.4%
